# Measurements reported in patent US12251469B2, “Sterically stabilized carrier compositions for treating a mammal” (VGSK Technologies, Inc., priority 2015, dated 2025).
# At least one compound was matched to its structure with a doubt left.
# What was measured:
# Type in all cases: in vivo
# [1] = tested on: sensitized mice; test: Preliminary dose-response study of BUD in sensitized mice, histopathologic examination; conditions: 20 μg/ml dose of BUD each day
# Protocol: The dose of BUD chosen was based on preliminary dose-response studies with 5 to 50 μg of BUD as follows.
# Each day, 5, 10, 15, 20 or 50 μg of BUD was administered to groups of sensitized mice, and the dose-dependent effects on the inflammatory parameters were evaluated.
# The tissues were removed and fixed with 10% phosphate buffered formalin. Tissue samples were taken from the skin, spleen, liver, gastrointestinal tract, and kidney. The tissues were embedded in paraffin, sectioned at 5 μm thickness and stained with hematoxylin and eosin and analyzed using light microscopy.
# Coded slides were examined by a pathologist in a blinded fashion for evidence of inflammatory changes, including epithelial hyperplasia and perivascular edema and accumulation of eosinophils, neutrophils, and mononuclear inflammatory cells. Each of the parameters evaluated was given an individual number score. Objective measurements of histopathological changes include aggregation of eosinophils around blood vessels (perivascular), accumulation of other inflammatory cells, presence of desquamation and hyperplasia of the epithelium, and infiltration of inflammatory cells.
# [2] = tested on: ovalbumin sensitized mice; test: Inflammation in ovalbumin-sensitized mice (text summary of the inflammatory parameters)
# [3] = tested on: PB eosinophils; test: Peripheral blood (PB) eosinophils in ovalbumin-sensitized mice; conditions: 20 μg/ml dose of BUD each day
smiles,measurement,setting,value
"CCCC1O[C@@H]2C[C@H]3[C@@H]4CCC5=CC(=O)C=C[C@]5(C)[C@H]4[C@@H](O)C[C@]3(C)[C@]2(C(=O)CO)O1 (stereo partly drawn) [Daily BUD, budesonide]",inflammation of tissues on histopathologic examination,[1],effectively decrease
same,Reduction of inflammation compared to Sensitized Untreated group (SENS),"[2]; BUD 1 study, 20 μg budesonide, once a week",did not have comparable effects
same,Reduction of inflammation compared to Sensitized Untreated group (SENS),"[2]; BUD 2 study, 20 μg budesonide, once a week",did not have comparable effects
same,Reduction of inflammation compared to Sensitized Untreated group (SENS),"[2]; BUD 3 study, + / − = with / without Cholesterol, once a week",did not have comparable effects
same,Reduction of inflammation compared to Sensitized Untreated group (SENS),"[2]; BUD 5 study, TRI 20 or 40 μg, BUD 20 μg",reduced the inflammation
same,"PB eosinophils, preliminary dose-response study",[3],effectively decrease
